Reference: PubChem BioAssay AID493014 (National Center for Advancing Translational Sciences (NCATS), 2011)
The campaign covered roughly 340,000 compounds. About 170 (0.05%) were called active. This list was built around the results that the source calls inconclusive (neither active nor inactive); the mix of calls is not that of the screen. The call rests on the fitted dose curve; in most records, active means well fitted inhibition curve with a large enough effect in the signal ratio, with a control signal flat (not every such curve was filed as active); inconclusive means small, poorly fitted or top-dose-only effect, or effect the other way, or a change in a side signal; inactive means flat fitted curve, though single readings scatter; the % refers to the signal ratio. Where the call is inconclusive, the potency comes from a doubtful curve fit.
Potency means the concentration at half of the fitted maximal effect.

Assay: qHTS Assay to Find Inhibitors of Chronic Active B-Cell Receptor Signaling;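 on activity change, negative = inhibition: plate controls were basal doxycycline-induced cells for no effect and cells given 10 µM MG132 for full effect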
Settings: ABC-DLBCL IkBa-CBG/CBR reporter, luminescence ratio (green luciferase fused to IkBa over red control in TMD8 lymphoma cells), 4 h; activity change, negative = inhibition: at 46.1 µM (top of the series) unless noted
Outline: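 Cell line TMD8 (human ABC DLBCL), stably expressing tet-inducible CBG68-IkBa fusion and CBR; IMDM/0.5% FBS; cpd up to 46 uM; dox induction, 4 h, 37C/5% CO2; dual luminescence; green/red ratio; MG132 control.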
For CCOc1ccc(C(=O)Nc2cccc(C(=O)O)c2)cc1Cl, the Potency was inconclusive: 25.1 µM [falling, single point].
In the case of COc1cc(C2Nc3ccc4ccccc4c3C3=C2C(=O)CC(C)(C)C3)ccc1OCC(=O)O (stereo unspecified), the “activity change, negative = inhibition” value is reported as inactive: 2.2%.
In the case of COc1ccccc1OCCn1c(=O)sc2ccccc21, the “activity change, negative = inhibition” value is reported as inactive: 1.7%.
For Cc1ccc(NC(=O)Nc2nnc(-c3ccccc3F)s2)cc1, the activity change, negative = inhibition was inconclusive: 10.5%.
In the case of C[C@@]12C(=O)N(Cc3ccccc3)CC(=O)N1[C@H]1c3cc(Cl)ccc3OC[C@@H]1[C@@H]2c1ccccc1, the activity change, negative = inhibition is reported as inconclusive: 6.5%.
For Cc1ccc(NC(=O)CN2C(=O)NC(Cc3c[nH]c4ccccc34)C2=O)cc1S(=O)(=O)N1CCCCC1 (stereo unspecified), the activity change, negative = inhibition was inconclusive: -17.1%.
For O=c1c(Cc2ccccc2O)c(O)nc2n1CCCS2, the activity change, negative = inhibition was inconclusive: -12.5%.
For Cc1cncn1CCc1nc2c3ccccc3nc(SCC(=O)Nc3cccc(Cl)c3)n2n1, the Potency was inconclusive: 29.1 µM [falling, partial curve, poor fit] and the activity change, negative = inhibition was inconclusive: 4.59%.
With CC(=O)SC(C)CC(=O)Nc1ccccc1 (stereo unspecified) the activity change, negative = inhibition was inconclusive: -6.33%.
For COc1ccc([C@H]2CC(=O)C=C(c3ccc4c5c(cccc35)CC4)C2)cc1, the “activity change, negative = inhibition” value was inactive: -0.38%.
In the case of CCCOc1ccc(N2C(=O)CC(N(Cc3ccco3)C(=O)CCC(=O)O)C2=O)cc1 (stereo unspecified), the activity change, negative = inhibition is reported as inconclusive: 3.99%.
In the case of O=C(NCCN1CCOCC1)c1ccc(Cl)c(S(=O)(=O)N2CCCCC2)c1, the “activity change, negative = inhibition” value is reported as inactive: -0.213%.
For Cc1nc(SCC(=O)Nc2ccccc2Cl)oc1C, the activity change, negative = inhibition was inconclusive: -16.3%.
In the case of CCc1nnc(NC(=O)CSc2nnc(-c3ccoc3C)n2-c2ccc(C)cc2)s1, the Potency is reported as inconclusive: 20.6 µM [falling, single point].
With Cc1cccn2cc(CSc3nnc(Nc4ccc(C(C)C)cc4)s3)nc12 the activity change, negative = inhibition was inconclusive: 0.489%.
For COc1ccccc1C(=O)N(Cc1ccco1)C1CCS(=O)(=O)C1 (stereo unspecified), the activity change, negative = inhibition was inconclusive: 8.61%.
For CCN1C(=O)/C(=C\N2CCN(c3cccc(Cl)c3)CC2)SC1=S, the activity change, negative = inhibition was inconclusive: 0.612%.
In the case of CCCOC(=O)Nc1sc2c(c1C(N)=O)CCCC2, the activity change, negative = inhibition is reported as inconclusive: 12.5%.
For O=C(O)/C=C/C(=O)Nc1ccc(-n2nccc2C(F)(F)F)cc1, the activity change, negative = inhibition was inconclusive: -6.09%.
With COc1ccc(-c2cn(-c3ccc(C)cc3C)c(=S)[nH]2)cc1OC the activity change, negative = inhibition was inconclusive: -11.1%.
For CCC(OC(=O)c1nsc(Cl)c1Cl)C(=O)NC(C)(C)CC (stereo unspecified), the activity change, negative = inhibition was inconclusive: -3.81%.
For CCCCCc1c2c(cc(O)c1C(=O)O)OC(=O)c1c(cc(OC)cc1C(=O)CCCC)O2, the “activity change, negative = inhibition” value was inactive: 0.344%.
For Cc1ccc(OCC(=O)N(Cc2ccc(C)o2)C2CCS(=O)(=O)C2)cc1 (stereo unspecified), the Potency was inconclusive: 2.82 µM [falling, partial curve, poor fit].
With COc1ccc(OC)c(NC(=O)c2c(NCc3cccs3)sc3c2CCCC3)c1 the activity change, negative = inhibition was inconclusive: -12.3%.
For C/C(CC(=O)Nc1cc(Cl)ccc1Cl)=N\NC(N)=S, the Potency was inconclusive: 25.1 µM [falling, single point].
In the case of O=C(NCc1ccc(F)cc1)c1ccccc1OCc1ccccc1, the Potency is reported as inconclusive: 10.3 µM [falling, partial curve].
In the case of Cc1ccc(CNC(=O)C2(NC(=O)Nc3ccc(C)cc3)CCCCC2)cc1, the “activity change, negative = inhibition” value is reported as inactive: 1.2%.
With COc1ccccc1OCCOc1ccc(/C=C2\C(=N)N3N=C(C)SC3=NC2=O)cc1 the activity change, negative = inhibition was inconclusive: 6.42%.
With O=C(c1cccs1)N1CCN(C(=O)C(c2ccccc2)c2ccccc2)CC1 the “activity change, negative = inhibition” value was inactive: 1%.
In the case of Cc1c(Cl)cccc1NC(=O)CNC(=O)c1ccccc1F, the activity change, negative = inhibition is reported as inconclusive: 3.32%.
For O=C(COc1ccc(Cl)cc1Br)NC(=O)NC1CCCC1, the “activity change, negative = inhibition” value was inactive: 7.58%.
In the case of O=C(CCC(=O)N(CC(=O)NC1CCCCC1)c1ccccc1F)Nc1nccs1, the activity change, negative = inhibition is reported as inconclusive: -0.882%.
For COc1ccc(N2CC(C(=O)N3CCC(c4nc5ccccc5[nH]4)CC3)CC2=O)cc1 (stereo unspecified), the activity change, negative = inhibition was inconclusive: 4.37%.
In the case of CCOc1cccc(/C=C/c2cc(C(=O)O)c3ccccc3n2)c1OC, the Potency is reported as inconclusive: 11.2 µM [falling, partial curve, poor fit].
With CCCCCCCCCC(=O)OCC(O)CO (stereo unspecified) the activity change, negative = inhibition was inconclusive: 2.72%.
In the case of CCn1cc(C(=O)NNC(=O)c2ccc(Cl)cc2)c(=O)c2ccc(C)nc21, the activity change, negative = inhibition is reported as inconclusive: 7.52%.
With Cc1ccccc1-c1nc(-c2ccc(NC(=O)c3ccc4c(c3)OCO4)cc2)no1 the Potency was inconclusive: 9.2 µM [falling, partial curve].
With Cn1c(=O)c(C(=O)Nc2ncccc2O)c(O)c2ccccc21 the activity change, negative = inhibition was inconclusive: -14.2%.
For O=C(CCS(=O)(=O)c1ccc(F)cc1)N1CCOCC1, the “activity change, negative = inhibition” value was inactive: 1.66%.
In the case of O=C(CSc1ccc(Cl)cc1)Nc1nnc(-c2ccco2)o1, the “activity change, negative = inhibition” value is reported as inactive: 6.3%.
